# Experimental data from the supplement of paper PMC12819154, “High-throughput peptide-centric local stability assay extends protein–ligand identification to membrane proteins, tissues and bacteria” (Nature Structural & Molecular Biology, 2025).
# Sequences of proteins named here, by UniProt entry; tags and fusion partners are left off. A change or cut given only in a name is not applied to a line headed by its entry.
# UniProt Q56NI9: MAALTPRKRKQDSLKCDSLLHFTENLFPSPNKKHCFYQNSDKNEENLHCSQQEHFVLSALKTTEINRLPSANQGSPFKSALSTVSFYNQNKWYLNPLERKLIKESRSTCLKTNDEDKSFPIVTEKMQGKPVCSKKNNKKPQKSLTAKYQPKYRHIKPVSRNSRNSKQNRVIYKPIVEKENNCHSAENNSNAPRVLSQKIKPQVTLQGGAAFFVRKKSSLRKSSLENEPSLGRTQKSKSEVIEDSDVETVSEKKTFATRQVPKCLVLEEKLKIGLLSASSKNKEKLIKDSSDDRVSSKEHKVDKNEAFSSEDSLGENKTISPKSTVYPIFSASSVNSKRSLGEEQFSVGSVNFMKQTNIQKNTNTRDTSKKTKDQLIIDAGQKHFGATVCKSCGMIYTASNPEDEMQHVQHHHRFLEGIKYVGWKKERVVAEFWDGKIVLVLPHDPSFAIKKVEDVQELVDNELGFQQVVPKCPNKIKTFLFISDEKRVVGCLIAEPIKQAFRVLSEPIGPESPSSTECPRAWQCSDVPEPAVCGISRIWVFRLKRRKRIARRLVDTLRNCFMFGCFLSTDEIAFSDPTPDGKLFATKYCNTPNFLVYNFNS
# UniProt Q5SSJ5: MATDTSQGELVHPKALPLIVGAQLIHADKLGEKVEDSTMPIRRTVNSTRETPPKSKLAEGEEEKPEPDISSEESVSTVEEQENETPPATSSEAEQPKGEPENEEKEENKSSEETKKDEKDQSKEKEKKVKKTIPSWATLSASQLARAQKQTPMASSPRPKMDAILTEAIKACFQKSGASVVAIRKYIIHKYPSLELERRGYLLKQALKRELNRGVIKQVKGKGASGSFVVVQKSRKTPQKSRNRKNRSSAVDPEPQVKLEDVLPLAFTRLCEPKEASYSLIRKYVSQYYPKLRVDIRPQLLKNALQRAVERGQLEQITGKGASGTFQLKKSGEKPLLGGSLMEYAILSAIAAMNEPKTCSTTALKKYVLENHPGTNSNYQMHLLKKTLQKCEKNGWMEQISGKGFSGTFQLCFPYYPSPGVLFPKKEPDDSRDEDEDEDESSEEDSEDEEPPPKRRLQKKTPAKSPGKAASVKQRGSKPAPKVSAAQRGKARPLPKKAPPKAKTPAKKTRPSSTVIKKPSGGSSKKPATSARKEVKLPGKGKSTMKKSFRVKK
# UniProt Q5F1R6: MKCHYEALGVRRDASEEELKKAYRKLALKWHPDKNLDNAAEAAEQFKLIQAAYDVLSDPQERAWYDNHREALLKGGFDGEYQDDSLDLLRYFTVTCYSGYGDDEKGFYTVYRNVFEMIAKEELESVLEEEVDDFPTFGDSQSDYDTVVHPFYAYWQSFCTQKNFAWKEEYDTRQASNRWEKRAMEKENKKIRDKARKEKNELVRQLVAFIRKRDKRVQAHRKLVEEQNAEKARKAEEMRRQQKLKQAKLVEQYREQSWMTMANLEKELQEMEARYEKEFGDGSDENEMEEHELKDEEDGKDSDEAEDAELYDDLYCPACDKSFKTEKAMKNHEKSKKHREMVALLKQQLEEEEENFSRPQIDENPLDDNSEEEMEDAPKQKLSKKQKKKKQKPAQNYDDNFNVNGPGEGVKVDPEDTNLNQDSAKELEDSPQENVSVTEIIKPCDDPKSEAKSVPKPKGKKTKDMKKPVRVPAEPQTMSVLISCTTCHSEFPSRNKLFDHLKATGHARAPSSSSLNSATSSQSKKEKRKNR
# UniProt Q5JNZ3: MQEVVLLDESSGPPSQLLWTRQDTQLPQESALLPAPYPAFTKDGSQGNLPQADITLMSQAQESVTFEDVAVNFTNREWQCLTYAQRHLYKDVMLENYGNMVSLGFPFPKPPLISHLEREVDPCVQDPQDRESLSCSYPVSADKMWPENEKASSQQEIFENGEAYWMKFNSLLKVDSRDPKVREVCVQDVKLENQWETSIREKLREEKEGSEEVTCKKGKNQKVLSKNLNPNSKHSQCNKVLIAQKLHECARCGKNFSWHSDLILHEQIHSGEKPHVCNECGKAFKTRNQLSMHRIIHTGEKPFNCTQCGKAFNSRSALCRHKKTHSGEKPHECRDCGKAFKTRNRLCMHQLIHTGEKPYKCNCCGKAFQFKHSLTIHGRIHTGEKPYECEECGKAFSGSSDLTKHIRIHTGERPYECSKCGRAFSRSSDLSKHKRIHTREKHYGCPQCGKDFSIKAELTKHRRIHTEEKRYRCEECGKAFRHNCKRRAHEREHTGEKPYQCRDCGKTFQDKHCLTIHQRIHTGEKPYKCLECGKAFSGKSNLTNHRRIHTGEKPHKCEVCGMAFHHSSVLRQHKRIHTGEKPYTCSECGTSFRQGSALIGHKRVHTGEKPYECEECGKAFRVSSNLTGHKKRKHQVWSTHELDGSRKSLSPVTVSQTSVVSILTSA
# UniProt Q56P03: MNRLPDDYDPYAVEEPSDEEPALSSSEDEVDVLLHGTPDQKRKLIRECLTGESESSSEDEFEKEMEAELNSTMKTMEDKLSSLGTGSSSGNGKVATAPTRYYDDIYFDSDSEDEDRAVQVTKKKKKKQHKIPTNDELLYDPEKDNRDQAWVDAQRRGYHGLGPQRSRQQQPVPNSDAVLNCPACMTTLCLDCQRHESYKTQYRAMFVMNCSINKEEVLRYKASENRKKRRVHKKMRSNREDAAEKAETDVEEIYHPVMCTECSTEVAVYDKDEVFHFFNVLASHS
# UniProt Q49AR2: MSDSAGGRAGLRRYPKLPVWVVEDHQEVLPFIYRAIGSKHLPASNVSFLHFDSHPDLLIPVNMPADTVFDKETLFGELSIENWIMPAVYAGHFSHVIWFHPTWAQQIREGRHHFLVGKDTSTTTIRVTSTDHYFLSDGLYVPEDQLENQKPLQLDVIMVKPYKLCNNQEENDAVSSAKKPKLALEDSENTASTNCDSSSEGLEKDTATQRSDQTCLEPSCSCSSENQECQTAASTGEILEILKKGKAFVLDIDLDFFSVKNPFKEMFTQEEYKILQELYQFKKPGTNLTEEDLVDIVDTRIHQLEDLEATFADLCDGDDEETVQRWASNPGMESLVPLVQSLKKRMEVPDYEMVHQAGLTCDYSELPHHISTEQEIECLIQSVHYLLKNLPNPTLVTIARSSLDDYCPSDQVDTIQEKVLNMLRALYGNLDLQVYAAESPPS
# UniProt Q53SF7, whole entry: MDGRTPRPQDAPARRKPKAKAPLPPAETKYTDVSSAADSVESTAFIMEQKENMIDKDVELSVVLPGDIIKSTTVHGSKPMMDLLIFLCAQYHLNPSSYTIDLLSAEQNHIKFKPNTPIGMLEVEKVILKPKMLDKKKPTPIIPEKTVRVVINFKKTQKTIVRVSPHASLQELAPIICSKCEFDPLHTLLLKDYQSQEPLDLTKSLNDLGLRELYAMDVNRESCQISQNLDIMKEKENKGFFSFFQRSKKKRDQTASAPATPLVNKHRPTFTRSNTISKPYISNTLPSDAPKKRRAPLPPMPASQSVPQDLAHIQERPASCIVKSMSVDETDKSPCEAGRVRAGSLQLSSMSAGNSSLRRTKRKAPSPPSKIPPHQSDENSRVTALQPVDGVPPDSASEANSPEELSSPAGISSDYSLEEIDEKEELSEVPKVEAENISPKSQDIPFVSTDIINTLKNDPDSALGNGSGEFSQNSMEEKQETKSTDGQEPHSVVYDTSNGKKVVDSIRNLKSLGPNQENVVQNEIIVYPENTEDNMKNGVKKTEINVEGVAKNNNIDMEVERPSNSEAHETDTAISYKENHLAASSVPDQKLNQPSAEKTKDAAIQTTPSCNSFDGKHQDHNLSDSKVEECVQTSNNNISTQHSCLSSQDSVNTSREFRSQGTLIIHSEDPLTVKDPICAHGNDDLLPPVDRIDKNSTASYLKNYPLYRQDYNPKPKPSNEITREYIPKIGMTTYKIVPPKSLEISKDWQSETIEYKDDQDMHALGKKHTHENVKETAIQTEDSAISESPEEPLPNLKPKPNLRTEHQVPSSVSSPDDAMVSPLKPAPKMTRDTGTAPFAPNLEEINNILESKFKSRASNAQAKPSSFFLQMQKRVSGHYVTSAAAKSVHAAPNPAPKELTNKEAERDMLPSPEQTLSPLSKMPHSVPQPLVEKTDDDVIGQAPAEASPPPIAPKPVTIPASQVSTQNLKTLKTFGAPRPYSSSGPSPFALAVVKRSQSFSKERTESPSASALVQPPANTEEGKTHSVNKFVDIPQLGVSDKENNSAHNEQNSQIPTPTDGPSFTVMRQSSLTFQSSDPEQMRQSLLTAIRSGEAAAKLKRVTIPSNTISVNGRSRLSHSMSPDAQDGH
# UniProt Q5VSL9: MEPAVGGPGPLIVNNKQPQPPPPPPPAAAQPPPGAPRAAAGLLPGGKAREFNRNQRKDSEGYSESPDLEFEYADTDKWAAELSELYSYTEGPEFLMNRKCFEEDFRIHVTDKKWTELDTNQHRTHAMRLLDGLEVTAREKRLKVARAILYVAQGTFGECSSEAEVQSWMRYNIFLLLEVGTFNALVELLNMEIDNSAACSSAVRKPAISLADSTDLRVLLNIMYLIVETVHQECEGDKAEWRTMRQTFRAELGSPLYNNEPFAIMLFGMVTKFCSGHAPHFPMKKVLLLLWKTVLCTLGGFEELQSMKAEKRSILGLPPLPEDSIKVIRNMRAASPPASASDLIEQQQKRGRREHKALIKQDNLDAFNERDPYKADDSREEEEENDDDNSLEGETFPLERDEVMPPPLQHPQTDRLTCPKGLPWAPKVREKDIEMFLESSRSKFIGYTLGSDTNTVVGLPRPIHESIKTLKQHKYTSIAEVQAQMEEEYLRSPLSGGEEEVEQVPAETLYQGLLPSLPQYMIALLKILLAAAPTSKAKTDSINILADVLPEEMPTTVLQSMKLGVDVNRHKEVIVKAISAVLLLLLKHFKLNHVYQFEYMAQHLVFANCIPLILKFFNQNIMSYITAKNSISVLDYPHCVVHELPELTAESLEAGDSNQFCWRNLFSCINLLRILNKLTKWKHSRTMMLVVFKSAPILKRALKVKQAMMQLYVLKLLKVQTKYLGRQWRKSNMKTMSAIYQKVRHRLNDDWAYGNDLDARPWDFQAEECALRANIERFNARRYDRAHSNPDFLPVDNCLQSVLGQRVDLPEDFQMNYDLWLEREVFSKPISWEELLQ
# UniProt Q5T6V5: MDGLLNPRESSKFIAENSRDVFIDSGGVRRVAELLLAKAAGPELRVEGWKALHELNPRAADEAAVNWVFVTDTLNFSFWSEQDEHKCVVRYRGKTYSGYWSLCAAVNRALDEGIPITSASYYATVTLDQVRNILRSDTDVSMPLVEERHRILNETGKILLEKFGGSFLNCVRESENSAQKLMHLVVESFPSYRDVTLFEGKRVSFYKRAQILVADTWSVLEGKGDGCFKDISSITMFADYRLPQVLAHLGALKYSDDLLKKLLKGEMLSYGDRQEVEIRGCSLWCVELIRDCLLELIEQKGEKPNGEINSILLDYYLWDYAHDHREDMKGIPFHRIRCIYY
# UniProt Q495B1: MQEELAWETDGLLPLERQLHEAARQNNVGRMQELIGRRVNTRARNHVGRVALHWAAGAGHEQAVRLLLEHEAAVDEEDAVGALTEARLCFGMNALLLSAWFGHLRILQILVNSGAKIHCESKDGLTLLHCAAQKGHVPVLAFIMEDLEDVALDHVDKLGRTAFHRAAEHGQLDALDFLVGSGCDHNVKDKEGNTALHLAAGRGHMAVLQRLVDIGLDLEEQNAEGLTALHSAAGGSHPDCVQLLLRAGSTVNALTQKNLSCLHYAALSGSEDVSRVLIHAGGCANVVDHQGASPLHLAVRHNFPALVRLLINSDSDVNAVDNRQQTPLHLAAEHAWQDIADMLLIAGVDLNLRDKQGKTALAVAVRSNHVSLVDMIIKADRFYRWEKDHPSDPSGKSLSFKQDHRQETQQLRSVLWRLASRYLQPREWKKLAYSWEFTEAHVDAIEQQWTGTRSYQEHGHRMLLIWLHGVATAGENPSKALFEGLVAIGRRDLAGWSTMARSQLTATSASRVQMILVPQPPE
# UniProt Q56A73: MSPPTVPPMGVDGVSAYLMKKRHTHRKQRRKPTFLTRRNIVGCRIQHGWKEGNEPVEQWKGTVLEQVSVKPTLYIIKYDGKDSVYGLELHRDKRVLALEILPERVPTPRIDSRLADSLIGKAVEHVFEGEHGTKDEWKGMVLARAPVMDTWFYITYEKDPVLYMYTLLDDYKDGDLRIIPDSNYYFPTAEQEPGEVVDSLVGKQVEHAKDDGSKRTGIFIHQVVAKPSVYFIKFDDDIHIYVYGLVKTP
# UniProt Q4G0S7: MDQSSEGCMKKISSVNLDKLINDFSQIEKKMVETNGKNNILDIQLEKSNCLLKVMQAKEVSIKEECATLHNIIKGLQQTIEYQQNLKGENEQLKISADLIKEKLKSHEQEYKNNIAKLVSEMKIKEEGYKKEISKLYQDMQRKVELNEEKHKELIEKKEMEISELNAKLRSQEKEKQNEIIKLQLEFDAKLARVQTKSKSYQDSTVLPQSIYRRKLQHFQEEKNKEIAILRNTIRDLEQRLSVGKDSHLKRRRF
# UniProt Q53S33: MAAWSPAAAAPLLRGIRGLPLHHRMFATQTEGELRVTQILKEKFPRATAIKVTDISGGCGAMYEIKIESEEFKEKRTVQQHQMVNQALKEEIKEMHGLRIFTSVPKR
# This is one part of the list. Most values lie at the level of the controls, where differences are scatter.
# Compound: Cc1nc(Nc2ncc(C(=O)Nc3c(C)cccc3Cl)s2)cc(N2CCN(CCO)CC2)n1 [dasatinib]
# Experiment: log2 fold change of tryptic peptide abundance, ligand vs vehicle (limited proteolysis) (log2 ratio); higher = more trypsin-susceptible (destabilized)
# Conditions: ligand concentration: 5 uM; sample: K562 cleared lysate
row,Target,log2 fold change
1,"ESCO2 (peptide sequence: IGLLSASSK, peptide start residue: 272) (UniProt Q56NI9)",-0.199
2,"UniProt Q5CZA5 (peptide sequence: HDGLGTADSVCSR, peptide start residue: 158)",0.411
3,"GLYR1 (peptide sequence: VEQLKPYHAHKEEMIK, peptide start residue: 57) (UniProt Q49A26)",-0.159
4,"HP1BP3 (peptide sequence: LGEKVEDSTMPIRR, peptide start residue: 30) (UniProt Q5SSJ5)",-0.259
5,"UniProt Q5T6F0 (peptide sequence: GWLNHDETWR, peptide start residue: 399)",0.253
6,"DNAJC21 (peptide sequence: AWYDNHR, peptide start residue: 63) (UniProt Q5F1R6)",-0.173
7,"PDZD11 (peptide sequence: VHHPDYNNELTQFLPR, peptide start residue: 31) (UniProt Q5EBL8)",0.358
8,"UniProt Q5JNZ3 (peptide sequence: LENQWETSIR, peptide start residue: 191)",0.185
9,"CAMSAP1 (peptide sequence: FSTFSASK, peptide start residue: 172) (UniProt Q5T5Y3)",-0.564
10,"NOM1 (peptide sequence: SADEANVLR, peptide start residue: 834) (UniProt Q5C9Z4)",0.0801
11,"EAPP (peptide sequence: IPTNDELLYDPEKDNR, peptide start residue: 131) (UniProt Q56P03)",-0.101
12,"GPATCH4 (peptide sequence: GQDPGAPQLQSESKPPK, peptide start residue: 187) (UniProt Q5T3I0)",-0.306
13,"C5orf22 (peptide sequence: ILQELYQFK, peptide start residue: 274) (UniProt Q49AR2)",0.0232
14,"UniProt Q5HYM0 (peptide sequence: RQSDPSIR, peptide start residue: 489)",0.306
15,"COBLL1 (peptide sequence: SVHAAPNPAPK, peptide start residue: 887) (UniProt Q53SF7)",0.345
16,"TPRG1L (peptide sequence: QTLWPLSIHDPTRR, peptide start residue: 44) (UniProt Q5T0D9)",-0.076
17,"UniProt Q5VSL9 (peptide sequence: ANIERFNARR, peptide start residue: 773)",-0.705
18,"PLEKHG4 (peptide sequence: DIAPSEEAINDR, peptide start residue: 1053) (UniProt Q58EX7)",0.0677
19,"C9orf64 (peptide sequence: LMHLVVESFPSYR, peptide start residue: 181) (UniProt Q5T6V5)",0.306
20,"ZNF326 (peptide sequence: SPTKTDPKNEEEEK, peptide start residue: 270) (UniProt Q5BKZ1)",0.417
21,"ACBD5 (peptide sequence: STEEVKPIDENLGQTGK, peptide start residue: 262) (UniProt Q5T8D3)",-0.686
22,"UniProt Q495B1 (peptide sequence: SQLTATSASR, peptide start residue: 502)",0.109
23,"UniProt Q5SRN2 (peptide sequence: KSCSKIQILK, peptide start residue: 226)",-0.0416
24,"SPIN4 (peptide sequence: VLALEILPERVPTPR, peptide start residue: 95) (UniProt Q56A73)",0.475
25,"SNAPC4 (peptide sequence: TLPQASLLASTGPRPKPK, peptide start residue: 874) (UniProt Q5SXM2)",-0.335
26,"CCDC152 (peptide sequence: LYQDMQR, peptide start residue: 136) (UniProt Q4G0S7)",0.231
27,"BOLA3 (peptide sequence: VTQILKEKFPR, peptide start residue: 36) (UniProt Q53S33)",-0.343

# Some of the entries so far, bar-delimited.
row | Target | log2 fold change
1 | ESCO2 (peptide sequence: IGLLSASSK, peptide start residue: 272) (UniProt Q56NI9) | -0.199
9 | CAMSAP1 (peptide sequence: FSTFSASK, peptide start residue: 172) (UniProt Q5T5Y3) | -0.564
14 | UniProt Q5HYM0 (peptide sequence: RQSDPSIR, peptide start residue: 489) | 0.306
16 | TPRG1L (peptide sequence: QTLWPLSIHDPTRR, peptide start residue: 44) (UniProt Q5T0D9) | -0.076
19 | C9orf64 (peptide sequence: LMHLVVESFPSYR, peptide start residue: 181) (UniProt Q5T6V5) | 0.306
21 | ACBD5 (peptide sequence: STEEVKPIDENLGQTGK, peptide start residue: 262) (UniProt Q5T8D3) | -0.686
25 | SNAPC4 (peptide sequence: TLPQASLLASTGPRPKPK, peptide start residue: 874) (UniProt Q5SXM2) | -0.335
